Laboratory results published in PubChem BioAssay AID587 (National Center for Advancing Translational Sciences (NCATS), 2007).
The campaign covered roughly 59,000 compounds. About 35 (0.06%) were called active. Inconclusive means that the source gave no clear call. Such entries were picked first, then a sample of the others. Rule as the data show it: active = max dye-equivalent concentration above about 10 nM; inconclusive = between about 1.1 nM and that limit; inactive = weaker than that.

assay: qHTS Assay for Spectroscopic Profiling in Texas Red Spectral Region; details: Compound fluorescence, Texas Red channel, 547/618 nm; active compounds read high
How it was run: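 Compound titrations in 100 mM Tris pH 8.0 were incubated 15 min at room temperature and read at 547 nm excitation / 618 nm emission. Texas Red six-point standard curve on each plate converted fluorescence to dye-equivalent concentration.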

| SMILES | max dye-equivalent concentration |
| --- | --- |
| O=C(CN1CCN(c2ccccn2)CC1)NCCc1ccccc1 | inconclusive: 1.8 nM |
| Cc1ccc(C)c(Cn2c(=O)n(CCCC(=O)NCc3ccco3)c(=O)c3ccccc32)c1 | inconclusive: 1.5 nM |
| Cc1ccc2c(c1)N(CC(=O)N1CCCc3ccccc31)C(=O)C(C)O2 (stereo not drawn) | inconclusive: 1.2 nM |
| CCOC(=O)c1ccc(N2C(=O)C3C(C2=O)C(C(=O)c2ccc(Cl)cc2)N2CCCC32)cc1 (stereo not drawn) | inactive |
| CCc1ccccc1S(=O)(=O)Cc1ccc(C(=O)NCC2CCCO2)o1 (stereo not drawn) | inconclusive: 1.3 nM |
| COc1cc2c(cc1NC(=O)Cn1cnc3c1c(=O)n(C)c(=O)n3C)oc1ccccc12 | inconclusive: 1.9 nM |
| Cc1ccc(CS(=O)(=O)CCC(=O)NCc2ccc3c(c2)OCO3)cc1 | inconclusive: 1.5 nM |
| COc1cc2c(cc1NC(=O)c1cncc(Br)c1)oc1ccccc12 | inconclusive: 1.3 nM |
| Cc1nc2ccccc2c(=O)n1/N=C/c1c(O)ccc2oc3c(c12)CCCC3 | inconclusive: 2.1 nM |
| Cc1cc(Br)ccc1NC(=O)C1CCCO1 (stereo not drawn) | inconclusive: 1.1 nM |
| CCOC(=O)N1CCC(c2nc(C)sc2C(=O)O)CC1 | inconclusive: 1.3 nM |
| Cc1onc(-c2c(F)cccc2Cl)c1C(=O)Nc1ccc(S(=O)(=O)Nc2ncccn2)cc1 | inconclusive: 1.4 nM |
| Cc1cc(NC(=O)CSc2nc(-c3ccccc3)c(C#N)c(=O)[nH]2)no1 | inconclusive: 2 nM |
| Cc1cc(C)c2c(n1)sc1c(O)cc(=O)[nH]c12 | inconclusive: 1.3 nM |
| COc1cc(CC(=O)N2CCc3ccccc32)cc(OC)c1OC | inconclusive: 1.1 nM |
| CCOC(=O)C1=C(O)C(=O)N(c2ccc(S(N)(=O)=O)cc2)C1c1ccc(OC)cc1 (stereo not drawn) | inconclusive: 1.7 nM |
| O=C(Cc1ccccc1)NC1CCN(S(=O)(=O)c2cccc(F)c2)CC1 | inconclusive: 1.5 nM |
| Cc1cc(CN(C)C)c(O)c(C2(C)CCCCC2)c1 | inconclusive: 1.2 nM |
| O=C(O)C1=CCCNC1 | inconclusive: 1.5 nM |
| COc1ccccc1-n1nc(C(=O)NCc2ccco2)c2ccccc2c1=O | inconclusive: 1.7 nM |
| O=c1cc(-c2ccc(O)c(O)c2)oc2cc(O[C@@H]3O[C@@H](CO)[C@@H](O)[C@@H](O)[C@H]3O)cc(O)c12 | inactive |
| CC(=O)NCc1ccc(C(=O)CSc2nnc(-c3ccncc3)n2Cc2ccccc2)o1 | inconclusive: 1.1 nM |

| SMILES | max dye-equivalent concentration |
| --- | --- |
| CSc1ccc(-c2nc(CSCC(=O)N3CCOCC3)c(C)o2)cc1 | inconclusive: 1.2 nM |
| Cc1cc2nc3c(=O)[nH]c(=O)nc-3n(CC(O)C(O)C(O)CO)c2cc1C (stereo not drawn) | inactive |
| CC(=O)c1cccc(NS(=O)(=O)c2c(C)noc2C)c1 | inconclusive: 1.1 nM |
| CN(Cc1ccccc1)Cn1ccnc1 | inactive |
| O=C(COc1ncnc2ccc(Br)cc12)N1CCOCC1 | inconclusive: 1.5 nM |
| COc1ccc(C(=O)CSc2nnc(-c3cc(C)cc(C)c3)o2)cc1 | inconclusive: 1.2 nM |
| CCOC(=O)N1CCC(NC(=O)CCC(=O)N2CC(C)Oc3ccc(Cl)cc32)CC1 (stereo not drawn) | inconclusive: 1.2 nM |
| Cc1cc2cc3c(cc2nc1SCC(=O)N1CCN(C(=O)c2ccco2)CC1)OCO3 | inconclusive: 1.3 nM |
| CC(C)NC[C@H](O)c1cc(O)cc(O)c1 | inconclusive: 1.3 nM |
| Cc1scc(C(=O)Nc2ccon2)c1-c1ccccc1 | inconclusive: 1.1 nM |
| CC(C)(C)NC(=O)Cn1c(SCC(=O)NCc2cccs2)nc2ccccc21 | inconclusive: 1.4 nM |
| Cc1cccc(C)c1OC[C@@H](N)C(C)C | inactive |
| Cc1nc2cc(NC(=O)COc3ccc(C#N)cc3)ccc2n1-c1ccccc1 | inconclusive: 1.1 nM |
| O=S(=O)(NCCC1=CCCCC1)c1cccc2nsnc12 | inconclusive: 1.1 nM |
| CCN1C(=O)C2C(c3cccc(F)c3)NC(CC)(C(=O)OC)C2C1=O (stereo not drawn) | inconclusive: 1.5 nM |
| COC(=O)[C@H](CCSC)NC(=O)NC1CCN(Cc2ccccc2)CC1 | inconclusive: 1.3 nM |
| CC(C)C(c1nnnn1Cc1ccccc1)N(CCCO)Cc1cc2cc3c(cc2[nH]c1=O)OCO3 (stereo not drawn) | inconclusive: 1.3 nM |
| COc1ccc(C(=O)NC2CCCCC2)cc1S(=O)(=O)N1CCCC1 | inconclusive: 1.4 nM |
| COc1ccccc1-c1nnn(CC#N)n1 | inconclusive: 1.3 nM |
| Cc1cc(C)c(S(=O)(=O)N(CC(=O)O)C2CCCCC2)c(C)c1 | inactive |
| CC(OC(=O)c1ccncc1)C(=O)Nc1cccc(Cl)c1 (stereo not drawn) | inconclusive: 1.4 nM |
| CCOC(=O)Cn1nnnc1C(CC)N(Cc1cc2c(C)cc(C)cc2[nH]c1=O)C1CCCC1 (stereo not drawn) | inconclusive: 1.9 nM |

| SMILES | max dye-equivalent concentration |
| --- | --- |
| O=C(NC1=NCCS1)C1Cc2ccccc2CN1C(=O)c1ccccc1 (stereo not drawn) | inconclusive: 2.4 nM |
| Nc1nc2nc(SCC(=O)N3CCCc4ccccc43)[nH]c2c(=O)[nH]1 | inconclusive: 1.1 nM |
| O=C(NCCSc1ccccc1)c1ccco1 | inconclusive: 2.1 nM |
| COc1ccc(-n2cnc3c(cnn3CCC#N)c2=N)cc1 | inconclusive: 1.3 nM |
| CC(=O)OCc1cc2cc(C)ccc2[nH]c1=O | inconclusive: 2.6 nM |
| O=C(c1ccncc1)N(Cc1ccco1)Cc1cc2ccccc2[nH]c1=O | inconclusive: 2 nM |
| O=C(CCC(=O)N(c1cccc(F)c1)C(C(=O)NC1CCCC1)c1ccncc1)Nc1cccnc1 (stereo not drawn) | inconclusive: 1.1 nM |
| Cc1cccc(CNc2ncncc2-c2ccccc2Cl)c1 | inconclusive: 1.1 nM |
| O=c1[nH]c(=O)n(CCO)c2nnn(Cc3ccccc3)c12 | inconclusive: 1.1 nM |
| COc1ccccc1NC(=O)C(CCS(C)(=O)=O)N1C(=O)c2ccccc2C1=O (stereo not drawn) | inconclusive: 1.2 nM |
| O=C(Cn1cnc2c(nnn2-c2ccc(F)cc2)c1=O)NCC1CCCO1 (stereo not drawn) | inactive |
| CN(C)C(CN1C(=O)C2CC=CCC2C1=O)c1cn(C)c2ccccc12 (stereo not drawn) | inconclusive: 1.6 nM |
| COc1ccc(C(=O)N2CCC3(CC2)CN(C(=O)Nc2ccccc2)C3)cc1 | inactive |
| O=C(Nc1nccs1)c1ccc(COc2ccc(F)cc2)o1 | inconclusive: 2.1 nM |
| c1ccc2c(c1)CCCN2Cc1nnc2n1CCCCC2 | inconclusive: 1.4 nM |
| O=C(CCn1c(=S)[nH]c2ccccc2c1=O)NCCCN1CCCC1=O | inconclusive: 1.1 nM |
| Cc1cccc(Nc2ccccc2)c1 | inconclusive: 1.1 nM |
| CN1CCN(CCCNC(=O)C2CCN(c3nnc(-n4cccc4)s3)CC2)CC1 | inconclusive: 1.1 nM |
| CN1CCN(c2nc3c(c(=O)[nH]c(=O)n3C)n2Cc2cccc3ccccc23)CC1 | inconclusive: 1.2 nM |
| COc1ccc2c(c1OC)C(=O)N(c1cccc(C)c1)C2 | inconclusive: 1.3 nM |
| COc1cc(C(=O)NCC2CCCO2)ccc1OCc1c(C)noc1C (stereo not drawn) | inconclusive: 1.1 nM |
| O=C(OC1CCCCC1=O)c1cc(=O)c2ccccc2o1 (stereo not drawn) | inconclusive: 1.8 nM |

3 compounds from above, ordered by heavy-atom count, low to high.

| SMILES | max dye-equivalent concentration |
| --- | --- |
| O=C(O)C1=CCCNC1 | inconclusive: 1.5 nM |
| CC(C)NC[C@H](O)c1cc(O)cc(O)c1 | inconclusive: 1.3 nM |
| O=C(Cc1ccccc1)NC1CCN(S(=O)(=O)c2cccc(F)c2)CC1 | inconclusive: 1.5 nM |

Additional structures

| SMILES | max dye-equivalent concentration |
| --- | --- |
| S=c1[nH]nc(-c2ccncc2)n1Cc1ccco1 | inconclusive: 1.4 nM |
| O=C(N1CCOCC1)N1CCN(c2ccccn2)CC1 | inconclusive: 1.5 nM |
| O=C(Nc1nnc(C23CC4CC(CC(C4)C2)C3)s1)c1ccco1 | inconclusive: 2 nM |
| COCCCNc1nc2c(c(=O)[nH]c(=O)n2C)n1CCCc1ccccc1 | inconclusive: 2 nM |
| CCOC(=O)c1cnc(SCc2ccccc2)nc1N | inconclusive: 2 nM |
| CCN(CC(=O)O)C(=O)c1cccnc1 | inactive |
| COc1ccc2nc(SCc3cnc(C)nc3N)[nH]c2c1 | inconclusive: 2 nM |
| COCCNC(=O)C(c1cccs1)N(C(=O)Cn1nnc2ccccc21)c1ccccc1 (stereo not drawn) | inconclusive: 1.5 nM |
| CCOC(=O)c1oc2ccccc2c1NC(=O)c1cccc(OC)c1OC | inconclusive: 1.1 nM |
| c1coc(Cn2nnnc2CN2CCN(C3CCCC3)CC2)c1 | inconclusive: 1.5 nM |
| O=C(CSc1nc2ccncc2[nH]1)Nc1ccccc1C(F)(F)F | inconclusive: 1.2 nM |
| Cc1noc(C)c1S(=O)(=O)Nc1ccc(C(=O)NC2CCCCCC2)cc1 | inconclusive: 1.2 nM |
| CN(C)c1ccc(P(=O)(OC2CCCCC2)C(O)c2cccnc2)cc1 (stereo not drawn) | inconclusive: 1.1 nM |
| CCOc1cc(-c2nc(-c3cc(OC)c(OC)c(OC)c3)no2)cc(OCC)c1OCC | inconclusive: 2.5 nM |
| COc1ccc(CCN/C=C2/CC(=O)NC2=O)cc1OC | inconclusive: 1.1 nM |
| Cc1cc(C)nc(-n2nc(C)cc2NC(=O)CN2CCCC(C)C2)n1 (stereo not drawn) | inconclusive: 1.7 nM |
| Cc1[nH]n2c(=O)cc(C(C)(C)C)nc2c1-c1ccccc1 | inconclusive: 1.9 nM |
| COc1ccc(OC)c(S(=O)(=O)NCc2csc(-c3ccccc3)n2)c1 | inconclusive: 1.2 nM |
| Nc1ccc(S(=O)(=O)Nc2ccnn2-c2ccccc2)cc1 | inconclusive: 1.2 nM |
| Oc1cc(CN2COc3ccccc32)c(O)cc1CNC1CCCCC1 | inactive |
| CCOC(=O)c1c(N)sc2c1CCCC2 | inconclusive: 1.1 nM |
| CN(C)c1ccc(CNC2CC(C)(C)NC(C)(C)C2)cc1 | inconclusive: 1.7 nM |

An excerpt of these results, as tab-separated lines.
SMILES	max dye-equivalent concentration
Cc1[nH]n2c(=O)cc(C(C)(C)C)nc2c1-c1ccccc1	inconclusive: 1.9 nM
COc1ccc(OC)c(S(=O)(=O)NCc2csc(-c3ccccc3)n2)c1	inconclusive: 1.2 nM
Nc1ccc(S(=O)(=O)Nc2ccnn2-c2ccccc2)cc1	inconclusive: 1.2 nM

Random excerpt: 2 records from the list.

| SMILES | max dye-equivalent concentration |
| --- | --- |
| COc1cc2c(cc1NC(=O)c1cncc(Br)c1)oc1ccccc12 | inconclusive: 1.3 nM |
| Cc1onc(-c2c(F)cccc2Cl)c1C(=O)Nc1ccc(S(=O)(=O)Nc2ncccn2)cc1 | inconclusive: 1.4 nM |
